{"source": "PubChem BioAssay AID504774, Drosophila RNAi Screening Center | 2011", "test": "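Knock-downs that shift viability of MMS-exposed cells relative to untreated ones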 (primary screen)", "cells": "Drosophila Kc167 cells", "reagent": "long dsRNA against Drosophila genes, about 0.25 µg dsRNA per well", "duration": "about 6 days: 3 days knock-down, then 3 days with or without MMS", "conditions": "methyl methanesulphonate 0.004% (w/v) for 3 days after knock-down", "read-out": "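ATP-dependent luminescence as a measure of live cells in MMS-exposed wells, quantile normalised within each plate, with replicate values also given as a mean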", "scale": "mean viability with MMS and viability with MMS: higher = more surviving cells after MMS", "note": "The screen tested about 23,000 reagents; this is an unselected part of those that have a named target and a result. 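Values are quantile-normalised luminescence on an arbitrary scale; higher means more cells surviving MMS.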 Further read-outs or replicates are left out here."}
{"Gene": "CG7025", "mean viability with MMS": 3.45e6, "viability with MMS, replicate 1": 3.86e6}
{"Gene": "alpha-Est1", "mean viability with MMS": 3.41e6, "viability with MMS, replicate 1": 3.84e6}
{"Gene": "CG13671", "mean viability with MMS": 3.70e6, "viability with MMS, replicate 1": 4.11e6}
{"Gene": "CG10710", "mean viability with MMS": 3.44e6, "viability with MMS, replicate 1": 3.81e6}
{"Gene": "Cyp4g1", "mean viability with MMS": 3.54e6, "viability with MMS, replicate 1": 4.05e6}
{"Gene": "PIG-K", "mean viability with MMS": 3.48e6, "viability with MMS, replicate 1": 3.94e6}

The list goes on (2 carried over from the part before).
{"Gene": "Cyp4g1", "mean viability with MMS": 3.54e6, "viability with MMS, replicate 1": 4.05e6}
{"Gene": "PIG-K", "mean viability with MMS": 3.48e6, "viability with MMS, replicate 1": 3.94e6}
{"Gene": "Targ3", "mean viability with MMS": 3.91e6, "viability with MMS, replicate 1": 4.49e6}
{"Gene": "Tret1-2", "mean viability with MMS": 3.58e6, "viability with MMS, replicate 1": 4.02e6}
{"Gene": "Cpr60D", "mean viability with MMS": 3.47e6, "viability with MMS, replicate 1": 4.08e6}
{"Gene": "Doc3", "mean viability with MMS": 3.41e6, "viability with MMS, replicate 1": 3.84e6}
{"Gene": "CG7453", "mean viability with MMS": 3.56e6, "viability with MMS, replicate 1": 4.15e6}
{"Gene": "5-HT1A", "mean viability with MMS": 3.42e6, "viability with MMS, replicate 1": 3.91e6}
{"Gene": "Kaz-m1", "mean viability with MMS": 3.65e6, "viability with MMS, replicate 1": 4.17e6}
{"Gene": "mRpS10", "mean viability with MMS": 3.54e6, "viability with MMS, replicate 1": 4.03e6}
